# Further values from the same series stand in other lists.
# Assay: In vivo individual difference analysis: individual plasma concentration versus time in rats (Example 8)
# Design: species or system SD rats
# Conditions: intragastric 1 mg/kg, listed as Hydrochloride Salt of Compound of Formula I
# Experimental: Compound of Formula I and salts thereof (sulfate, hydrochloride salt, phosphate, maleate), supplied by Shanghai Jingxin Biopharmaceutical Co., Ltd. • Strain: SD rats; Gender: male; Body weight: about 250 grams; Source: shanghai Jiesijie Experimental Animal Co., Ltd Route: single intragastric administration; Capacity: measured in 10 mL/kg body weight Preparation: weighing appropriate amount of the free base or salt of the compound of Formula I, adding a small amount of 0.5% CMC-Na to grind, adding 0.5% CMC-Na to the volume. The concentration is measured as the base. 20 SD rats were divided into 5 groups with 4 rats in each group, fasted for 12 h and drank freely before administration. […] The blood was anticoagulated with 1% heparin, the plasma was separated by 8000 rpm centrifugation for 4 min and stored at -40° C. for testing. LC-MS/MS Method. Pharmacokinetic parameters after administration in rats were calculated using a non-compartmental model of DAS 2.0 software.
smiles,measurement,setting,value
"CN(C)C(=O)N[C@H]1CC[C@H](CCN2CCN(c3cccc4ccsc34)CC2)CC1 [Example 2, N′-[trans-4-[2-[7-(benzo[b]thiophene)-7-piperazinyl]ethyl]cyclohexyl]-N,N-dimethylurea]",Plasma Concentrations of Compound of Formula I,"5 min after administration, Mean ± SD",10.9 ± 15.0 ng/mL
same,Plasma Concentrations of Compound of Formula I,"5 min after administration, rat 1♂",0.448 ng/mL
same,Plasma Concentrations of Compound of Formula I,"5 min after administration, rat 2♂",1.02 ng/mL
same,Plasma Concentrations of Compound of Formula I,"5 min after administration, rat 3♂",9.68 ng/mL
same,Plasma Concentrations of Compound of Formula I,"5 min after administration, rat 4♂",32.6 ng/mL
same,Plasma Concentrations of Compound of Formula I,"0.167 h after administration, Mean ± SD",11.4 ± 9.40 ng/mL
same,Plasma Concentrations of Compound of Formula I,"0.167 h after administration, rat 1♂",5.53 ng/mL
same,Plasma Concentrations of Compound of Formula I,"0.167 h after administration, rat 2♂",10.3 ng/mL
same,Plasma Concentrations of Compound of Formula I,"0.167 h after administration, rat 3♂",4.72 ng/mL
same,Plasma Concentrations of Compound of Formula I,"0.167 h after administration, rat 4♂",25.0 ng/mL
same,Plasma Concentrations of Compound of Formula I,"1 h after administration, Mean ± SD",30.3 ± 9.55 ng/mL
same,Plasma Concentrations of Compound of Formula I,"2 h after administration, Mean ± SD",17.1 ± 5.86 ng/mL
same,Plasma Concentrations of Compound of Formula I,"2 h after administration, rat 1♂",19.4 ng/mL
same,Plasma Concentrations of Compound of Formula I,"2 h after administration, rat 2♂",11.5 ng/mL
same,Plasma Concentrations of Compound of Formula I,"2 h after administration, rat 3♂",13.3 ng/mL
same,Plasma Concentrations of Compound of Formula I,"2 h after administration, rat 4♂",24.3 ng/mL
same,Plasma Concentrations of Compound of Formula I,"4 h after administration, Mean ± SD",5.86 ± 2.45 ng/mL
same,Plasma Concentrations of Compound of Formula I,"4 h after administration, rat 1♂",5.99 ng/mL
same,Plasma Concentrations of Compound of Formula I,"4 h after administration, rat 2♂",3.04 ng/mL
same,Plasma Concentrations of Compound of Formula I,"4 h after administration, rat 3♂",5.43 ng/mL
same,Plasma Concentrations of Compound of Formula I,"4 h after administration, rat 4♂",8.99 ng/mL
same,Plasma Concentrations of Compound of Formula I,"6 h after administration, Mean ± SD",2.59 ± 1.02 ng/mL
same,Plasma Concentrations of Compound of Formula I,"6 h after administration, rat 1♂",2.26 ng/mL
same,Plasma Concentrations of Compound of Formula I,"6 h after administration, rat 2♂",1.46 ng/mL
same,Plasma Concentrations of Compound of Formula I,"6 h after administration, rat 3♂",2.74 ng/mL
same,Plasma Concentrations of Compound of Formula I,"6 h after administration, rat 4♂",3.90 ng/mL
same,Plasma Concentrations of Compound of Formula I,"9 h after administration, Mean ± SD",1.05 ± 0.295 ng/mL
same,Plasma Concentrations of Compound of Formula I,"9 h after administration, rat 1♂",0.932 ng/mL
same,Plasma Concentrations of Compound of Formula I,"9 h after administration, rat 2♂",0.683 ng/mL
same,Plasma Concentrations of Compound of Formula I,"9 h after administration, rat 3♂",1.32 ng/mL
same,Plasma Concentrations of Compound of Formula I,"9 h after administration, rat 4♂",1.25 ng/mL
same,Plasma Concentrations of Compound of Formula I,"12 h after administration, Mean ± SD",0.833 ± 0.636 ng/mL
same,Plasma Concentrations of Compound of Formula I,"12 h after administration, rat 1♂",0.514 ng/mL
same,Plasma Concentrations of Compound of Formula I,"12 h after administration, rat 2♂",0.299 ng/mL
same,Plasma Concentrations of Compound of Formula I,"12 h after administration, rat 3♂",1.74 ng/mL
same,Plasma Concentrations of Compound of Formula I,"12 h after administration, rat 4♂",0.777 ng/mL
same,Plasma Concentrations of Compound of Formula I,"24 h after administration, Mean ± SD",0.336 ± 0.210 ng/mL
same,Plasma Concentrations of Compound of Formula I,"24 h after administration, rat 1♂",0.139 ng/mL
same,Plasma Concentrations of Compound of Formula I,"24 h after administration, rat 2♂",0.423 ng/mL
same,Plasma Concentrations of Compound of Formula I,"24 h after administration, rat 3♂",0.591 ng/mL
same,Plasma Concentrations of Compound of Formula I,"24 h after administration, rat 4♂",0.190 ng/mL

# Reference: US20210309631A1, “SALT OF CYCLOHEXANE DERIVATIVE” (priority 2018, published 2021)
